## Results of single-concentration screens

A: 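Whole-parasite assay of Trypanosoma brucei over 72 hours; the read-out is not stated. Concentration: 30 µM. Direction is inferred from retests: higher values go with stronger inhibition. Values scatter widely below zero; nearly all retest evidence comes from the higher of the two concentrations used. About 64,000 compounds were tested under these conditions; 1.5% (about 940) showed 50% or more at least once.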
B: 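Cell assay of Leishmania donovani living inside macrophages; the read-out is not stated. Tested at 30 µM. Direction is inferred from retests: higher values go with stronger inhibition. Of about 69,000 compounds tested this way, about 1,000 (1.5%) reached 50% or more in at least one test.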
C: 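Assay of Toxoplasma gondii numbers, read through their beta-galactosidase reporter with a colour substrate. Tested at 10 µM. Higher reads as fewer parasites (inferred from which compounds were picked for retests). Of about 67,000 compounds tested this way, about 260 (0.38%) reached 50% or more in at least one test.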

Each number is a percent effect as filed.
How 0% and 100% were set is not recorded. Most values in the screen are low, and negative values occur.
The compounds are a random part of those screened.
Two or more numbers in one place are separate tests of the same structure; such repeats can differ widely.
A dash means the value is not listed here; it may have been measured.

{"compound": "CC1CCN(Cc2c(C(C)C)[nH]c3ncccc23)CC1", "A": -2.419, "B": -23.71, "C": 15}
{"compound": "COc1ncccc1C(=O)N1CCCC1c1c(C)nn(C)c1Cl", "stereo": "stereo unspecified", "B": 16.55, "C": 11.32}
{"compound": "COCC(O)CNC(=O)c1cc(COc2ccc3c(c2)CCCC3)on1", "stereo": "stereo unspecified", "A": -3.633, "B": 11.52, "C": -13.44}
{"compound": "[H][C@@]12CCCN1CCCN(c1nc(CCC)nc3c1cnn3C)C2", "A": -42.81, "B": 22.06, "C": -14.09}
{"compound": "CCc1nc(CC)n(CC(=O)N(C)Cc2ccc(F)cc2)n1", "A": -24.46, "B": -25.18, "C": 3.162}
{"compound": "[H][C@]12CCCC(=O)N[C@@]1(C)CCCCN2C(=O)c1cn2cc(C)ccc2n1", "A": -15.37, "B": "8.081 and -9.484", "C": 4.832}
{"compound": "O=C(NCc1cccs1)c1nc2c(o1)CN(CC1CC1)C2.O=C(O)C(F)(F)F", "A": -30.2, "B": -14.74, "C": 1.145}
{"compound": "COCC(=O)N1CC[C@@H](N2CCN(C)CC2)[C@@H]1Cc1ccccc1", "A": -25.08, "B": 18.8, "C": 0.2973}
{"compound": "CC(CCc1ccccc1F)C(=O)NS(=O)(=O)CC1CC1", "stereo": "stereo unspecified", "A": -52.09, "B": 14.57, "C": 2.717}
{"compound": "O=C(CSCc1ccncc1)N(Cc1ccsc1)C1CC1", "A": 18.57, "B": 0.722, "C": -8.125}
{"compound": "CN(C)C(=O)CN1CCN(Cc2coc(-c3cccc(F)c3)n2)CC1", "A": 1.738, "B": 19.79, "C": -1.48}
{"compound": "CCc1ncc2c(n1)CN(Cc1cccc(OCC(N)=O)c1)CC2", "A": -7.832, "B": 18.23, "C": 9.732}
{"compound": "CC(C)C(NC(=O)c1ccc(Cl)cc1Cl)C(=O)Nc1cnn(C)c1", "stereo": "stereo unspecified", "A": -61.08, "B": 7.881, "C": -1.321}
{"compound": "Cc1cc(C(F)(F)F)nc(CNC(=O)CCC2CCCN(C)C2)n1", "stereo": "stereo unspecified", "A": -13.42, "B": 17.62, "C": -17.22}
{"compound": "CCOC(=O)c1coc(N2CCC(C(O)CC(C)C)CC2)n1", "stereo": "stereo unspecified", "A": -17.83, "B": 37.3, "C": -34.07}
{"compound": "O=C(NCCCn1cnnc1)C1CCCN(C2CCCC2)C1", "stereo": "stereo unspecified", "A": -22.19, "B": -22.62, "C": -4.333}
{"compound": "CC1CCCCN1C(=O)c1ccc2c(c1)OCCCO2", "stereo": "stereo unspecified", "A": 2.68, "B": -4.407, "C": 0.1604}
{"compound": "Cc1ccc(C2CCCN2Cc2nc3c(cnn3C)c(=O)[nH]2)cc1C", "stereo": "stereo unspecified", "A": 12.64, "B": 13.06}
{"compound": "Cc1nc(S(=O)(=O)NCCC(=O)NCc2ccc(C#N)cc2)cn1C", "A": -14.52, "B": -4.644, "C": -23.8}
{"compound": "Cc1ccc(OC2CCN(C(=O)C(C)Cn3cccn3)CC2)cc1", "stereo": "stereo unspecified", "A": -5.656, "B": 5.727, "C": 1.83}
{"compound": "COCc1cncc2c1CCN(Cc1cccnc1)C2", "A": -37.44, "B": -3.25, "C": -6.271}
{"compound": "CC(=O)Nc1cc(C2CC2)nn1-c1nc(C)c(C)c(=O)[nH]1", "A": -12.81, "B": -16.88, "C": -13.24}
{"compound": "CCNc1cc2c(nn1)CCN(C(=O)CC1CCCCC1)C2", "A": -28.43, "B": 30.46}
{"compound": "CCC(C)NC(=O)NCCC(=O)N1CCN(c2ccccn2)CC1", "stereo": "stereo unspecified", "A": -3.589, "B": -29.12, "C": 6.387}
{"compound": "CN(C)C(=O)COC1COC2(CCN(S(C)(=O)=O)CC2)C1", "stereo": "stereo unspecified", "B": 8.131, "C": 0.3765}
{"compound": "CCCn1cc(NC(=O)Nc2ccc(F)c(C(=O)NC)c2)cn1", "A": 13.53, "B": -20.82, "C": -3.226}
{"compound": "Cn1c(N)nnc1SC1CCCN(c2ccccc2F)C1=O", "stereo": "stereo unspecified", "A": -55.68, "B": 6.247, "C": -21.36}
{"compound": "COc1ccc(F)c(-c2cc(O)nc(N)n2)c1", "A": -22.79, "B": 4.954, "C": -4.694}
{"compound": "[H][C@]12C[C@H](C(=O)NC)N(C)[C@@]1([H])CN(C(=O)c1cnc(C)cn1)C2", "A": -19.06, "B": 10.25, "C": -16.16}
{"compound": "CN(CCCc1cnn(C)c1)C(=O)Nc1cccc2[nH]ncc12", "A": 16.85, "B": 21.94, "C": -7.678}
{"compound": "CCc1n[nH]c(C2CN(C(=O)c3csnn3)CCO2)n1", "stereo": "stereo unspecified", "A": -2.223, "B": 21.05, "C": 11.64}
{"compound": "CC(C)N(Cc1nccn1C)C(=O)c1cnc(O)cn1", "A": -12.27, "B": -6.918, "C": -1.598}
{"compound": "COCC[C@]1(O)CCN(Cc2nc(C)c(C)s2)C[C@H]1C", "A": -10.2, "B": -19.2, "C": 11.1}
{"compound": "COc1ccccc1C1Cn2c(C)cnc2CN1Cc1c[nH]nc1C", "stereo": "stereo unspecified", "B": 32.25, "C": -0.1938}
{"compound": "O=C(NCCN1CCOCC1)NCc1ncc(-c2ccccc2)o1", "A": 26.66, "B": 28.53, "C": -8.04}
{"compound": "O=C(O)C(F)(F)F.[H][C@]12C[C@H](C(=O)NC)N(C)[C@@]1([H])CN(S(=O)(=O)Cc1ccccc1)C2", "A": 18.67, "B": -5.867, "C": 8.62}
{"compound": "Cc1ccccc1N1CCN(CCS(=O)(=O)c2ccc(Br)cc2)CC1", "A": -30.08, "B": -22.82, "C": -22.6}
{"compound": "CCc1cn[nH]c1C1CCN(C(=O)c2cc(C#N)c(=O)[nH]c2C)CC1", "A": -36.75, "B": 25.21, "C": -4.432}

Repeated from the top, 4 entries:

| Compound | A | B | C |
|---|---|---|---|
| `CC1CCN(Cc2c(C(C)C)[nH]c3ncccc23)CC1` | -2.419% | -23.71% | 15% |
| `COc1ncccc1C(=O)N1CCCC1c1c(C)nn(C)c1Cl` (stereo unspecified) | - | 16.55% | 11.32% |
| `COCC(O)CNC(=O)c1cc(COc2ccc3c(c2)CCCC3)on1` (stereo unspecified) | -3.633% | 11.52% | -13.44% |
| `[H][C@@]12CCCN1CCCN(c1nc(CCC)nc3c1cnn3C)C2` | -42.81% | 22.06% | -14.09% |

Data taken from ChEMBL document CHEMBL3988442, “University of Dundee, Small-Polar-MMV Screening Library” (2021).